PubChem BioAssay AID1159584, Peter MacCallum Cancer Centre | 2016

Screen: 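Knock-downs that harm CDH1-null cells more than parental MCF10A cells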 (primary screen)
Cell system: human MCF10A breast epithelial cells, parental and CDH1-null
Reagents: siRNA against human genes
Measurement: 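ATP luminescence (CellTiter-Glo) viability per line relative to mean mock wells over all plates, and the ratio of CDH1-null to parental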
Reading the numbers: CDH1-null / parental viability ratio: higher = CDH1-null cells survive relatively better than parental
Shown is one part, drawn at random, of about 18,000 reagents tested. Further read-outs or replicates are left out here. Not given: the amount of reagent, the time to read-out.

| gene knocked down | CDH1-null / parental viability ratio |
| --- | --- |
| TAGLN3 (transgelin 3) | 1.02 |
| NLGN1 (neuroligin 1) | 0.93 |
| NDRG4 (NDRG family member 4) | 1.05 |
| EGLN3 (egl-9 family hypoxia inducible factor 3) | 0.84 |
| SCAF8 (SR-related CTD associated factor 8) | 1.03 |
| MPZL2 (myelin protein zero like 2) | 0.93 |
| LYPLA2 (lysophospholipase 2) | 0.98 |
| TRIM15 (tripartite motif containing 15) | 1.03 |
| SRXN1 (sulfiredoxin 1) | 1.74 |
| FBXL16 (F-box and leucine rich repeat protein 16) | 1.14 |
| DEUP1 (deuterosome assembly protein 1) | 0.93 |
| OR2L8 (olfactory receptor family 2 subfamily L member 8) | 1.73 |
| TGIF2LY (TGFB induced factor homeobox 2 like Y-linked) | 0.97 |
| SDHB (succinate dehydrogenase complex iron sulfur subunit B) | 0.97 |
| ADNP (activity dependent neuroprotector homeobox) | 1.11 |
| TRAPPC9 (trafficking protein particle complex subunit 9) | 1.1 |
| ARMC5 (armadillo repeat containing 5) | 1.19 |
| CCDC57 (coiled-coil domain containing 57) | 1.1 |
| DMC1 (DNA meiotic recombinase 1) | 0.84 |
| SNX6 (sorting nexin 6) | 1.32 |
| ZNF672 (zinc finger protein 672) | 1 |
| MRPL45 (mitochondrial ribosomal protein L45) | 1.2 |
| B3GNT2 | 0.95 |
| SGPP2 (sphingosine-1-phosphate phosphatase 2) | 1.35 |
| RPL24 (ribosomal protein L24) | 1.67 |
| LATS1 (large tumor suppressor kinase 1) | 1 |
| OR11H6 (olfactory receptor family 11 subfamily H member 6) | 1.62 |
| CUL4A (cullin 4A) | 1.11 |
| CNOT8 (CCR4-NOT transcription complex subunit 8) | 1.13 |
| PCK2 (phosphoenolpyruvate carboxykinase 2, mitochondrial) | 0.95 |
| TRIM26 (tripartite motif containing 26) | 0.99 |
| FKBP8 (FKBP prolyl isomerase 8) | 1.06 |
| PRKAB2 (protein kinase AMP-activated non-catalytic subunit beta 2) | 1 |
| NAT8B (N-acetyltransferase 8B (putative, gene/pseudogene)) | 0.85 |
| PEX11A (peroxisomal biogenesis factor 11 alpha) | 0.89 |
| SH2D1B (SH2 domain containing 1B) | 0.77 |
| CSAD (cysteine sulfinic acid decarboxylase) | 0.83 |
| BLOC1S6 (biogenesis of lysosomal organelles complex 1 subunit 6) | 1.17 |
| PEBP1 (phosphatidylethanolamine binding protein 1) | 1.16 |
| HMGB2 (high mobility group box 2) | 1.11 |
| GAL (galanin and GMAP prepropeptide) | 1.19 |
| HOXA1 (homeobox A1) | 0.88 |
| POFUT4 (protein O-fucosyltransferase 4) | 1.01 |
| COL3A1 (collagen type III alpha 1 chain) | 1.04 |
| GTF2E2 (general transcription factor IIE subunit 2) | 1.15 |
| GDAP1 (ganglioside induced differentiation associated protein 1) | 1.02 |
| DGAT2 (diacylglycerol O-acyltransferase 2) | 0.86 |
| AMZ2 (archaelysin family metallopeptidase 2) | 0.93 |
| NBN (nibrin) | 0.93 |
| BRK1 (BRICK1 subunit of SCAR/WAVE actin nucleating complex) | 1.02 |
| EQTN (equatorin) | 0.91 |
| CUL7 (cullin 7) | 0.97 |
| GTPBP2 (GTP binding protein 2) | 1 |
| GLIPR1L1 (GLIPR1 like 1) | 1.29 |
| ELAPOR2 | 0.92 |
| ARFGEF3 (ARFGEF family member 3) | 0.91 |
| PGAP6 (post-GPI attachment to proteins 6) | 0.92 |
| ASTN2 (astrotactin 2) | 1.28 |
| BCAS1 (brain enriched myelin associated protein 1) | 1.28 |
| ERC2 (ELKS/RAB6-interacting/CAST family member 2) | 0.87 |
| MMP16 (matrix metallopeptidase 16) | 1.09 |
| ZNF606 (zinc finger protein 606) | 0.94 |
| IL32 (interleukin 32) | 0.91 |
| NMU (neuromedin U) | 0.98 |
| TRAM1 (translocation associated membrane protein 1) | 1.12 |
| FGF18 (fibroblast growth factor 18) | 0.91 |
| GJA4 (gap junction protein alpha 4) | 0.97 |
| ARG2 (arginase 2) | 1.09 |
